Values joined by “and” are separate entries in the source; they are usually repeats but may differ in a detail not shown here. Identical values can stand only once. Out of some 330,000 compounds screened, about 7,700 (2.3%) were called active. This list was built around the results that the source calls inconclusive (neither active nor inactive); the mix of calls is not that of the screen. Calls come from the whole dose curve; as a rule, active = well fitted inhibition curve with a large enough effect; inconclusive = small, poorly fitted or top-dose-only effect, or effect the other way; inactive = flat fitted curve, though single readings scatter. Where the call is inconclusive, the potency comes from a doubtful curve fit.
Test: qHTS screen for small molecules that inhibit ELG1-dependent DNA repair in human embryonic kidney (HEK293T) cells expressing luciferase-tagged ELG1; note: nearly all actives have a fitted effect of over 55% in size
Settings: HEK293T ELG1-luciferase reporter, luminescence, 16 h, DNA damage induced by 5-fluorouridine; activity change, negative = inhibition: at 46.1 µM (top of the series)
Procedure, shortened: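 Overnight (16 hr) co-exposure of 2,000 cells/well to 5-fluorouridine and compound at 37 °C preceded detection. Luciferase was quantified via ONE-Glo luminescence; loss of signal denotes inhibition.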
% is set by controls: 0 for no effect and ±100 for the full control effect; potency is the fitted concentration of half-maximal effect.

Compound | activity change, negative = inhibition | Potency
COc1cc2c(cc1OC)CN(C(=O)c1cccc(S(=O)(=O)N(C)C)c1)CC2 | inactive: 0% | –
CCOc1ccccc1NC(=S)N1C2CCC1CC(NC(=O)NC13CC4CC(CC(C4)C1)C3)C2 (configuration not stated) | – | inconclusive: 25.9 µM [inhibitor, partial curve, poor fit]
Cc1cccc(C(=O)O/N=C/c2ccc(Br)cc2)c1 | – | inconclusive: 4.11 µM [activator, full curve, poor fit]
Cc1ccc(S(=O)(=O)N2CCN(C(=O)c3n[nH]c(=O)c4ccccc34)CC2)cc1 | inconclusive: 103% [activator] | –
Cc1cc(C=O)c(C)n1-c1ccc(N2CCOCC2)c([N+](=O)[O-])c1 | inactive: 8.91% | –
COc1cc(OC)cc(-c2cc3nc(C)c(CCC(=O)NCc4ccccc4)c(C)n3n2)c1 | – | active: 20.6 µM
CCOC(=O)CC(=O)CSc1nc2sc(C)cc2c(=O)n1Cc1ccco1 | – | inconclusive: 18.4 µM [inhibitor, single point]
Cc1ccccc1Nc1nn2c(=O)c3ccccc3nc2s1 | – | inconclusive: 7.31 µM [activator, partial curve]
O=C(CNC(=O)c1ccccc1Cl)Nc1ccc(F)cc1 | – | inconclusive: 20.6 µM [activator, single point]
CC(NC(=O)c1cc(COc2ccccc2)on1)c1nccs1 (configuration not stated) | – | inconclusive: 9.2 µM [activator, partial curve]
Cc1ccccc1-c1nc(CSc2nc3c(c(=O)[nH]2)CCC3)c(C)o1 | – | inconclusive: 18.4 µM [inhibitor, single point]
CN(C)CCCN(C(=O)c1ccc([N+](=O)[O-])s1)c1nc2cc3c(cc2s1)OCCO3 | – | inconclusive: 9.2 µM [activator, partial curve]
COc1ccc(CNS(=O)(=O)c2cc(CN3C(=O)c4cccnc4C3=O)ccc2OC)cc1 | – | inconclusive: 29.1 µM [activator, single point]
Cc1onc(-c2c(Cl)cccc2Cl)c1C(=O)ONC(=O)c1ccccc1 | – | inconclusive: 6.51 µM [activator, single point]
Cc1ccc(-n2c(SCc3ccc(C#N)cc3)nnc2-c2ccccn2)cc1 | inactive: -4.33% | –
NC(=O)C1(N2CCCCC2)CCN(CC(=O)Nc2ccccc2-c2ccccc2)CC1 | – | inconclusive: 8.2 µM [inhibitor, single point]
COc1cc2c(-c3ccc4c(c3)OCO4)c(-c3ccsc3)oc(=O)c2cc1OC | – | inconclusive: 8.2 µM [inhibitor, partial curve]
COc1ccccc1-n1cnc2sc(-c3ccccc3)cc2c1=O | – | inconclusive: 11.6 µM [activator, partial curve]
O=C(Nc1cccnc1)c1ccc2nc(-c3ccccc3)c(-c3ccccc3)nc2c1 | – | active: 23.1 µM
Clc1cccc(-c2nc(NCCN3CCOCC3)c3ccccc3n2)c1 | – | inconclusive: 23.1 µM [inhibitor, partial curve]
C=CCNC(=O)COC(=O)c1c2c(nc3ccccc13)CCC2 | inactive: -2.44% | –
O=C(/C=C/c1ccccc1Cl)Nc1ccc(Cl)cn1 | – | inconclusive: 29.1 µM [activator, single point]
COc1ccccc1CCc1nnc(CCC(=O)N(C)Cc2ccncc2C)o1 | inactive: -1.19% | –
CC(C)(C)OC(=O)CNC(=O)c1nc[nH]c1C(=O)N1CCN(c2ccccc2)CC1 | – | inconclusive: 0.092 µM [activator, single point]

Compound | activity change, negative = inhibition | Potency
CC(C)c1ccc2[nH]c3c(c2c1)[C@@H]1CCN2C(=O)CCC[C@H](C3)[C@H]12 | – | inconclusive: 3.66 µM [activator, single point]
COc1ccc(C(=O)N/C(=C/c2cccnc2)C(=O)Nc2cccc(C(C)=O)c2)cc1OC | inactive: 4.81% | –
CCCCN1C(=N)N([C@@H](C)CN2CCC[C@H]2CN2C(N)=NC[C@H]2CC(C)C)C[C@H]1[C@H](C)CC | inactive: -0.619% | –
O=C(Nc1ccccc1F)Nc1ccc([N+](=O)[O-])cc1Cl | – | inconclusive: 13 µM [activator, partial curve]
NS(=O)(=O)c1ccc(NC(=O)/C=C/c2cccs2)cc1 | – | inconclusive: 29.1 µM [activator, single point]
Cc1ccc(-c2cnn(-c3ccccc3)c2N)cc1 | – | inconclusive: 2.31 µM [activator, full curve]
COCc1cc(C)nc2sc(C(=O)Nc3ccccc3OC)c(N)c12 | – | inconclusive: 29.1 µM [inhibitor, single point]
CC(C)c1nc2ccccc2n1CC(O)COC1CCCCC1 (configuration not stated) | inactive: -15.2% | –
COc1ccc(-c2csc(Nc3ccc(O)cc3)n2)cc1 | – | inconclusive: 4.11 µM [activator, full curve]
COc1cccc(CN2CC(C(=O)NCc3cnn(C)c3)CCC2=O)c1 (configuration not stated) | – | inconclusive: 20.6 µM [activator, single point]
Cn1nnc2cc(C(=O)Nc3ccc(Cl)cc3)ccc21 | – | inconclusive: 13 µM [activator, partial curve]
Cc1cc2ncn(S(=O)(=O)N3CCOCC3)c2cc1C | inactive: 5.96% | –
O=C(Nc1ccc(F)cc1)c1cccnc1NCCc1ccccc1 | – | inconclusive: 25.9 µM [inhibitor, single point]
C/C(=C\C(=O)c1cccnc1)Nc1ccc(O)cc1 | – | inconclusive: 23.1 µM [activator, partial curve]
CCNC(=O)CC1C(=O)N(c2ccc(F)cc2)C(=O)N1Cc1ccc(OC)cc1 (configuration not stated) | – | inconclusive: 0.326 µM [activator, full curve, poor fit]
COC(=O)Nc1ccc2c(c1)ncn2C1CCCCC1 | – | inconclusive: 18.4 µM [activator, single point]
CCOC(=O)c1ccc(NC(=O)CSc2nc(N3CCOCC3)nc(N3CCOCC3)n2)cc1 | – | inconclusive: 6.51 µM [inhibitor, single point]
FC(F)(F)c1ccc(N/N=C/c2cccnc2)nc1 | – | inconclusive: 9.2 µM [activator, partial curve]
Cc1cc2cc(CN(Cc3ccc4c(c3)OCO4)C(=O)c3cnccn3)c3nnnn3c2cc1C | – | active: 16.4 µM
CSc1ccccc1C(=O)N1CCN(c2cccc(Cl)c2)CC1 | – | active: 20.6 µM
CC1=CC(C)(C)NC(=S)N1c1cccc2ccccc12 | inactive: -9.06% | –
COc1ccc(-c2cc(=O)oc3cc(OC(C)C(=O)NCc4ccccn4)ccc23)cc1 (configuration not stated) | – | inconclusive: 3.66 µM [inhibitor, single point]
CCOc1ccc(C2c3[nH]c4ccccc4c3CCN2Cc2cn(CC)nc2C)cc1 (configuration not stated) | – | inconclusive: 20.6 µM [inhibitor, single point]
CCCC(=O)O/N=C(\c1ccccc1)c1ccncc1 | inactive: -0.0679% | –

Compound | activity change, negative = inhibition | Potency
O=Cc1ccc(O)c2ncccc12 | – | active: 2.31 µM
COc1ccc2oc(C(=O)NCCc3ccccc3)c(C)c2c1 | – | inconclusive: 1.16 µM [activator, partial curve]
COC(=O)C1=C(C)N=c2s/c(=C3\C(=O)Nc4ccccc43)c(=O)n2C1c1ccccc1 (configuration not stated) | – | inconclusive: 13 µM [inhibitor, partial curve]
C=CCn1c(SCC(=O)NC2CC2)nnc1-c1cccc(OC)c1 | inactive: -4.97% | –
Fc1ccc(/C=C\c2nccc3c2[nH]c2ccccc23)cc1 | inactive: -6.82% | –
COc1cccc(-n2c(SCC(=O)c3c[nH]c4ccccc34)nc3ccccc3c2=O)c1 | – | inconclusive: 29.1 µM [inhibitor, single point]
Cc1cnc(NC(=O)c2nn(C)cc2[N+](=O)[O-])s1 | inactive: 15.4% | –
COc1ccc2[nH]c3c(=O)n(Cc4ccc(C(=O)N5CCCC5)cc4)c(=S)[nH]c3c2c1 | – | inconclusive: 2.31 µM [inhibitor, partial curve]
CCOc1cc(/C=C2/SC(=S)N(Cc3ccccc3)C2=O)ccc1O | inactive: 11.7% | –
COc1ccc(-n2c(SCC(=O)Nc3cccc(C(=O)O)c3)nnc2-c2ccco2)cc1 | inactive: -16.3% | –
O=C(Cc1cc(=O)[nH]c(=O)[nH]1)NCC1CCCO1 (configuration not stated) | inactive: 5.82% | –
C=CCOn1c(=O)c(-c2cccs2)[n+]([O-])c2ccccc21 | inactive: 4.2% | –
Cc1ccc(NC2CCCN(C(=O)c3ccc(F)cc3)C2)cc1C (configuration not stated) | inactive: 2.36% | –
O=C(C1=C[C@@H](c2ccccc2)C[C@@H](OCc2ccc(CO)cc2)O1)N1CCCCCCC1 | inactive: -2.86% | –
C[C@H](CO)N1C[C@H](C)[C@H](CN(C)Cc2ccncc2)Oc2ccc(NC(=O)Nc3ccc(C(F)(F)F)cc3)cc2CC1=O | – | inconclusive: 23.1 µM [inhibitor, single point]
CC(C)CNC(=O)C1C2C=CC(C2)C1C(=O)O (configuration not stated) | – | inconclusive: 3.26 µM [activator, partial curve, poor fit]
CCc1cc(C(=O)N2CCc3c([nH]c4ccccc34)C2c2ccc(OC)cc2F)no1 (configuration not stated) | inactive: 1.78% | –
Cc1ccc2oc(-c3cccc(NC(=S)NC(=O)/C=C/c4ccco4)c3)nc2c1 | – | inconclusive: 18.4 µM [activator, partial curve]
CC1CCN(c2nc3c(c(=O)[nH]c(=O)n3C)n2CC(C)CSc2nnnn2-c2ccccc2)CC1 (configuration not stated) | – | inconclusive: 32.6 µM [inhibitor, single point]
O=C(COC(=O)c1ccccc1[N+](=O)[O-])NNC(=O)c1cccs1 | inactive: 7.25% | –
COc1ccc(-c2n[nH]c(=S)n2/N=C/c2cccn2C)cc1 | inactive: 2.35% | –
Cc1cc2c(cc1C)N(C(=O)CSC1=NCCS1)C(C)(C)c1ssc(=S)c1-2 | inactive: 5.07% | –
NC(N)=NC(N)=Nc1cccc2ccccc12 | inactive: -12.7% | –
N#C/C(=C(/O)c1ccco1)c1nc2ccccc2s1 | – | inconclusive: 23.1 µM [activator, partial curve] and inconclusive: 3.66 µM [activator, partial curve]

Reference: PubChem BioAssay AID504467 (National Center for Advancing Translational Sciences (NCATS), 2011)
